From patent US20260209345A1 (IOMX THERAPEUTICS, published 2026)
Results are given in words; binding and its absence hold for the method and conditions named. Some binding calls cover weakened binding; strength is not graded here.

The chains behind the UniProt entries cited, without tags or fusion partners. Where a name states a change or a piece, a line headed by the entry shows the natural chain unless it says otherwise.
UniProt Q8N6C8: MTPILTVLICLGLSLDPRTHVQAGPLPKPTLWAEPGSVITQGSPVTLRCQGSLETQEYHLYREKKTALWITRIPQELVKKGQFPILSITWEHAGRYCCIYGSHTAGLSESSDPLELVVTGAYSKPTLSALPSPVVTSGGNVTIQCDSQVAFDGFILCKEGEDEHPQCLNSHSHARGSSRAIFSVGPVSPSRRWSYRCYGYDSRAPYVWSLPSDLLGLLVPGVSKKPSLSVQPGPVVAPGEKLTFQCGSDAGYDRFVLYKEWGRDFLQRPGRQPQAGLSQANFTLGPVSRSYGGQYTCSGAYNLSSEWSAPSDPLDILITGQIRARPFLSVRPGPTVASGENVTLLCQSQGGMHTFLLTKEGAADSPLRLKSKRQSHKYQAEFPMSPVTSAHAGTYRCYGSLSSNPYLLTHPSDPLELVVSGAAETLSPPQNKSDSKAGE

Target: LILRA3 on transiently transfected Expi293 cells (human) (UniProt Q8N6C8)
Assay: flow cytometry, transfected Expi293 cells

binding: binds
B1: A-045 (antibody, V domains shown)
VH: QVQLVQSGAEVKKPGSSVKVSCKASGGTFQSQAFAWVRQAPGQGLEWMGSIIPGFSTANYAQKFQGRVTITADESTSTAYMELSSLRSEDTAVYYCAKDLGTYSSGWPYYYGMDVWGQGTTVTVSS
VL: SYELTQPPSVSVSPGQTASITCSGDKLGDKYASWYQQKPGQSPVLVIYQDSKRPSGIPERFSGSNSGNTATLTISGTQAEDEADYYCQLTHLTIYVFGGGTKLTVL
notes: tested as IgG; HC of A-010 and LC of A-036
